Taken from: PubChem BioAssay AID1259261 (Sanger Institute, 2017)
The deposit covers 794 reagents; this is a random part of them. Over the whole deposit, 10 (1.3%) are marked active. 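Calls reflect knock-down alone without drug; synergy scores with BYL719, cetuximab or trametinib do not affect calls.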 Unmarked entries are inactive. No viability above 1 is reported: the scale is capped. Not all columns of the deposit are shown. Not stated in the record: the amount of reagent, the time to read-out.

- Aim: 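Find kinase silencing that cuts viability alone or with anchor drugs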 (primary screen)
- Cell system: HCC2998 human colorectal cancer cells
- Reagents: siRNA pool against human genes
- Challenge: anchor drugs BYL719 1 µM, cetuximab 5 µg/ml or trametinib 10 nM, each compared with DMSO vehicle
- Detection: 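Viability as fraction of non-targeting control plus robust z-score without drug; synergy scores compare knock-down plus drug against each alone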
- Reading the numbers: viability z-score, knock-down alone: higher = more viable cells than controls; viability fraction, knock-down alone: higher = more viable cells
- Active means: 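a knock-down is called essential if its robust z-score without drug is under -3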
- Meaning of the calls: active = essential; inactive = no change

The opening 2 records, ahead of the listing:
{"target": "KALRN", "PubChem SID": "SID134314670", "viability z-score, knock-down alone": -0.601, "viability fraction, knock-down alone": 0.774}
{"target": "ETNK2", "PubChem SID": "SID56478982", "viability z-score, knock-down alone": 0.181, "viability fraction, knock-down alone": 0.872}

Results, from the start:
{"target": "KALRN", "PubChem SID": "SID134314670", "viability z-score, knock-down alone": -0.601, "viability fraction, knock-down alone": 0.774}
{"target": "ETNK2", "PubChem SID": "SID56478982", "viability z-score, knock-down alone": 0.181, "viability fraction, knock-down alone": 0.872}
{"target": "CSNK1D", "PubChem SID": "SID56478658", "viability z-score, knock-down alone": -0.565, "viability fraction, knock-down alone": 0.778}
{"target": "CAMK4", "PubChem SID": "SID56478933", "viability z-score, knock-down alone": 1.21, "viability fraction, knock-down alone": 1}
{"target": "ULK1", "PubChem SID": "SID56478976", "viability z-score, knock-down alone": 1.07, "viability fraction, knock-down alone": 0.983}
{"target": "TAOK3", "PubChem SID": "SID152152167", "viability z-score, knock-down alone": -1.28, "viability fraction, knock-down alone": 0.688}
{"target": "GUCY2EP", "PubChem SID": "SID152152788", "viability z-score, knock-down alone": -1.12, "viability fraction, knock-down alone": 0.708}
{"target": "BUB1", "PubChem SID": "SID152152440", "viability z-score, knock-down alone": 0.586, "viability fraction, knock-down alone": 0.922}
{"target": "BRD4", "PubChem SID": "SID152154839", "viability z-score, knock-down alone": 0.644, "viability fraction, knock-down alone": 0.93}
{"target": "CDKL2", "PubChem SID": "SID152156267", "viability z-score, knock-down alone": 0.405, "viability fraction, knock-down alone": 0.9}
{"target": "CALM3", "PubChem SID": "SID152148336", "viability z-score, knock-down alone": -0.883, "viability fraction, knock-down alone": 0.738}
{"target": "CDC73", "PubChem SID": "SID134319235", "viability z-score, knock-down alone": -1.97, "viability fraction, knock-down alone": 0.602}
{"target": "ACO1", "PubChem SID": "SID134314687", "viability z-score, knock-down alone": -0.0589, "viability fraction, knock-down alone": 0.841}
{"target": "CAMK2N1", "PubChem SID": "SID152156102", "viability z-score, knock-down alone": -1.24, "viability fraction, knock-down alone": 0.694}
{"target": "PTK2B", "PubChem SID": "SID56478543", "viability z-score, knock-down alone": -0.416, "viability fraction, knock-down alone": 0.797}
{"target": "CMPK1", "PubChem SID": "SID56478766", "viability z-score, knock-down alone": 0.483, "viability fraction, knock-down alone": 0.909}
{"target": "PLK4", "PubChem SID": "SID152155543", "viability z-score, knock-down alone": -0.676, "viability fraction, knock-down alone": 0.764}
{"target": "STRADA", "PubChem SID": "SID152149670", "viability z-score, knock-down alone": 0.906, "viability fraction, knock-down alone": 0.962}
{"target": "PAK3", "PubChem SID": "SID56478716", "viability z-score, knock-down alone": -0.924, "viability fraction, knock-down alone": 0.733}
{"target": "SMAD2", "PubChem SID": "SID152156776", "viability z-score, knock-down alone": -0.181, "viability fraction, knock-down alone": 0.826}
{"target": "XYLB", "PubChem SID": "SID152153831", "viability z-score, knock-down alone": -0.742, "viability fraction, knock-down alone": 0.756}
{"target": "PTEN", "PubChem SID": "SID152153158", "viability z-score, knock-down alone": 0.000523, "viability fraction, knock-down alone": 0.849}
{"target": "SHPK", "PubChem SID": "SID135621260", "viability z-score, knock-down alone": 1.21, "viability fraction, knock-down alone": 1}
{"target": "CAMK2A", "PubChem SID": "SID56478931", "viability z-score, knock-down alone": -0.125, "viability fraction, knock-down alone": 0.833}
{"target": "SGK3", "PubChem SID": "SID56478777", "viability z-score, knock-down alone": -0.229, "viability fraction, knock-down alone": 0.82}
{"target": "PDK2", "PubChem SID": "SID56478952", "viability z-score, knock-down alone": 0.0428, "viability fraction, knock-down alone": 0.854}
{"target": "MKNK1", "PubChem SID": "SID135620901", "viability z-score, knock-down alone": 1.21, "viability fraction, knock-down alone": 1}
{"target": "NEK6", "PubChem SID": "SID56478779", "viability z-score, knock-down alone": 1.21, "viability fraction, knock-down alone": 1}
{"target": "PIP5K1C", "PubChem SID": "SID134310630", "viability z-score, knock-down alone": 0.648, "viability fraction, knock-down alone": 0.93}
{"target": "ILK", "PubChem SID": "SID152151227", "viability z-score, knock-down alone": 0.699, "viability fraction, knock-down alone": 0.937}
{"target": "ILK", "PubChem SID": "SID152153406", "viability z-score, knock-down alone": 1.21, "viability fraction, knock-down alone": 1}
{"target": "CDKL5", "PubChem SID": "SID135620888", "viability z-score, knock-down alone": -0.846, "viability fraction, knock-down alone": 0.743}
{"target": "SF3B1", "PubChem SID": "SID152151347", "viability z-score, knock-down alone": "-3.66 (active)", "viability fraction, knock-down alone": 0.389}
{"target": "ACVR2A", "PubChem SID": "SID152150723", "viability z-score, knock-down alone": -0.804, "viability fraction, knock-down alone": 0.748}
{"target": "NEK9", "PubChem SID": "SID56478903", "viability z-score, knock-down alone": 0.461, "viability fraction, knock-down alone": 0.907}
{"target": "GRK2", "PubChem SID": "SID152155453", "viability z-score, knock-down alone": 1.21, "viability fraction, knock-down alone": 1}
